# Assay results taken from the supplement of paper PMC8728848.
# The other results are listed elsewhere or left out.
# Tests used:
# Assay in all cases: glycan array binding signal (z-score within array); higher = stronger binding
# Conditions in all cases: glycan notation: IUPAC condensed, linker removed
# GlcNAc(b1-3)Gal(b1-4)Glc = target: GlcNAc(b1-3)Gal(b1-4)Glc
# Outline: (§1)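 The Consortium for Functional Glycomics database supplied 3228 glycan arrays, of which those lacking an available protein sequence were dropped. The binding signal, a within-array Z-score, was averaged across arrays of the same protein sequence and across linkers. Negative scores can be read as non-binding.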
# [1] = target: GlcNAc(b1-3)Gal(b1-4)GlcNAc
# Outline: as §1
# [2] = target: GlcNAc(b1-3)Gal(b1-4)GlcNAc(b1-2)Man(a1-3)[GlcNAc(b1-3)Gal(b1-4)GlcNAc(b1-2)Man(a1-6)]Man(b1-4)GlcNAc(b1-4)GlcNAc
# Outline: as §1
# [3] = target: GlcNAc(b1-3)Gal(b1-4)GlcNAc(b1-2)Man(a1-3)[GlcNAc(b1-3)Gal(b1-4)GlcNAc(b1-2)Man(a1-6)]Man(b1-4)GlcNAc(b1-4)[Fuc(a1-6)]GlcNAc
# Outline: as §1
# [4] = target: GlcNAc(b1-3)Gal(b1-4)GlcNAc(b1-2)[GlcNAc(b1-3)Gal(b1-4)GlcNAc(b1-6)]Man(a1-6)[GlcNAc(b1-3)Gal(b1-4)GlcNAc(b1-2)Man(a1-3)]Man(b1-4)GlcNAc(b1-4)GlcNAc
# Outline: as §1
# [5] = target: GlcNAc(b1-3)Gal(b1-4)GlcNAc(b1-3)Gal(b1-4)GlcNAc
# Outline: as §1
# [6] = target: GlcNAc(b1-3)Gal(b1-4)GlcNAc(b1-3)Gal(b1-4)GlcNAc(b1-2)Man(a1-3)[GlcNAc(b1-3)Gal(b1-4)GlcNAc(b1-3)Gal(b1-4)GlcNAc(b1-2)Man(a1-6)]Man(b1-4)GlcNAc(b1-4)GlcNAc
# Outline: as §1
# [7] = target: GlcNAc(b1-3)Gal(b1-4)GlcNAc(b1-3)Gal(b1-4)GlcNAc(b1-2)Man(a1-3)[GlcNAc(b1-3)Gal(b1-4)GlcNAc(b1-3)Gal(b1-4)GlcNAc(b1-2)Man(a1-6)]Man(b1-4)GlcNAc(b1-4)[Fuc(a1-6)]GlcNAc
# Outline: as §1
# [8] = target: GlcNAc(b1-3)Gal(b1-4)GlcNAc(b1-3)Gal(b1-4)GlcNAc(b1-2)[GlcNAc(b1-3)Gal(b1-4)GlcNAc(b1-3)Gal(b1-4)GlcNAc(b1-6)]Man(a1-6)[GlcNAc(b1-3)Gal(b1-4)GlcNAc(b1-3)Gal(b1-4)GlcNAc(b1-2)Man(a1-3)]Man(b1-4)GlcNAc(b1-4)[Fuc(a1-6)]GlcNAc
# Outline: as §1
# [9] = target: GlcNAc(b1-3)Gal(b1-4)GlcNAc(b1-3)Gal(b1-4)GlcNAc(b1-3)Gal(b1-4)GlcNAc(b1-2)Man(a1-3)[GlcNAc(b1-3)Gal(b1-4)GlcNAc(b1-3)Gal(b1-4)GlcNAc(b1-3)Gal(b1-4)GlcNAc(b1-2)Man(a1-6)]Man(b1-4)GlcNAc(b1-4)GlcNAc
# Outline: as §1
# [10] = target: GlcNAc(b1-3)Gal(b1-4)GlcNAc(b1-3)Gal(b1-4)GlcNAc(b1-3)Gal(b1-4)GlcNAc(b1-2)Man(a1-3)[GlcNAc(b1-3)Gal(b1-4)GlcNAc(b1-3)Gal(b1-4)GlcNAc(b1-3)Gal(b1-4)GlcNAc(b1-2)Man(a1-6)]Man(b1-4)GlcNAc(b1-4)[Fuc(a1-6)]GlcNAc
# Outline: as §1
# [11] = target: GlcNAc(b1-3)Gal(b1-4)GlcNAc(b1-3)Gal(b1-4)GlcNAc(b1-3)Gal(b1-4)GlcNAc(b1-2)[GlcNAc(b1-3)Gal(b1-4)GlcNAc(b1-3)Gal(b1-4)GlcNAc(b1-3)Gal(b1-4)GlcNAc(b1-6)]Man(a1-6)[GlcNAc(b1-3)Gal(b1-4)GlcNAc(b1-3)Gal(b1-4)GlcNAc(b1-3)Gal(b1-4)GlcNAc(b1-2)Man(a1-3)]Man(b1-4)GlcNAc(b1-4)[Fuc(a1-6)]GlcNAc
# Outline: as §1
# [12] = target: GlcNAc(b1-3)Gal(b1-4)GlcNAc(b1-3)Gal(b1-4)GlcNAc(b1-3)Gal(b1-4)GlcNAc(b1-3)Gal(b1-4)GlcNAc(b1-2)Man(a1-3)[GlcNAc(b1-3)Gal(b1-4)GlcNAc(b1-3)Gal(b1-4)GlcNAc(b1-3)Gal(b1-4)GlcNAc(b1-3)Gal(b1-4)GlcNAc(b1-2)Man(a1-6)]Man(b1-4)GlcNAc(b1-4)GlcNAc
# Outline: as §1
# [13] = target: GlcNAc(b1-3)Gal(b1-4)GlcNAc(b1-3)Gal(b1-4)GlcNAc(b1-3)Gal(b1-4)GlcNAc(b1-3)Gal(b1-4)GlcNAc(b1-2)Man(a1-3)[GlcNAc(b1-3)Gal(b1-4)GlcNAc(b1-3)Gal(b1-4)GlcNAc(b1-3)Gal(b1-4)GlcNAc(b1-3)Gal(b1-4)GlcNAc(b1-2)Man(a1-6)]Man(b1-4)GlcNAc(b1-4)[Fuc(a1-6)]GlcNAc
# Outline: as §1
# [14] = target: GlcNAc(b1-3)Gal(b1-4)GlcNAc(b1-3)Gal(b1-4)GlcNAc(b1-3)Gal(b1-4)GlcNAc(b1-3)Gal(b1-4)GlcNAc(b1-2)[GlcNAc(b1-3)Gal(b1-4)GlcNAc(b1-3)Gal(b1-4)GlcNAc(b1-3)Gal(b1-4)GlcNAc(b1-3)Gal(b1-4)GlcNAc(b1-6)]Man(a1-6)[GlcNAc(b1-3)Gal(b1-4)GlcNAc(b1-3)Gal(b1-4)GlcNAc(b1-3)Gal(b1-4)GlcNAc(b1-3)Gal(b1-4)GlcNAc(b1-2)Man(a1-3)]Man(b1-4)GlcNAc(b1-4)[Fuc(a1-6)]GlcNAc
# Outline: as §1
# [15] = target: GlcNAc(b1-3)Gal(b1-4)GlcNAc(b1-3)Gal(b1-4)GlcNAc(b1-3)GalNAc
# Outline: as §1
# [16] = target: GlcNAc(b1-3)Gal(b1-4)GlcNAc(b1-3)GalNAc
# Outline: as §1
# [17] = target: GlcNAc(b1-3)Gal(b1-4)GlcNAc(b1-3)[GlcNAc(b1-3)Gal(b1-4)GlcNAc(b1-3)]GalNAc
# Outline: as §1
# [18] = target: GlcNAc(b1-3)Gal(b1-4)GlcNAc(b1-6)[Gal(b1-3)]GalNAc
# Outline: as §1
# [19] = target: GlcNAc(b1-3)Gal(b1-4)GlcNAc(b1-6)[GlcNAc(b1-3)Gal(b1-3)]GalNAc
# Outline: as §1
# [20] = target: GlcNAc(b1-3)Gal(b1-4)GlcNAc(b1-6)[GlcNAc(b1-3)]Gal(b1-4)GlcNAc
# Outline: as §1
# GlcNAc(b1-3)GalNAc = target: GlcNAc(b1-3)GalNAc
# Outline: as §1
# GlcNAc(b1-3)Man = target: GlcNAc(b1-3)Man
# Outline: as §1
# [21] = target: GlcNAc(b1-3)[GlcNAc(b1-4)][GlcNAc(b1-6)]GlcNAc
# Outline: as §1
# [22] = target: GlcNAc(b1-3)[GlcNAc(b1-6)]Gal(b1-4)GlcNAc
# Outline: as §1
# [23] = target: GlcNAc(b1-3)[GlcNAc(b1-6)]GalNAc
# Outline: as §1
# [24] = target: GlcNAc(b1-4)Gal(b1-4)GlcNAc
# Outline: as §1
# GlcNAc(b1-4)GlcNAc = target: GlcNAc(b1-4)GlcNAc
# Outline: as §1
# [25] = target: GlcNAc(b1-4)GlcNAc(b1-4)GlcNAc
# Outline: as §1
# [26] = target: GlcNAc(b1-4)GlcNAc(b1-4)GlcNAc(b1-4)GlcNAc(b1-4)GlcNAc
# Outline: as §1
# [27] = target: GlcNAc(b1-4)GlcNAc(b1-4)GlcNAc(b1-4)GlcNAc(b1-4)GlcNAc(b1-4)GlcNAc
# Outline: as §1
# [28] = target: GlcNAc(b1-4)[GlcNAc(b1-6)]GalNAc
# Outline: as §1
# [29] = target: GlcNAc(b1-6)Gal(b1-4)GlcNAc
# Outline: as §1
# GlcNAc(b1-6)GalNAc = target: GlcNAc(b1-6)GalNAc
# Outline: as §1
# [30] = target: GlcNAc6S(b1-3)Gal(b1-4)GlcNAc
# Outline: as §1
# Kdn(a2-3)Gal(b1-3)GalNAc = target: Kdn(a2-3)Gal(b1-3)GalNAc
# Outline: as §1
# Kdn(a2-3)Gal(b1-3)GlcNAc = target: Kdn(a2-3)Gal(b1-3)GlcNAc
# Outline: as §1
binder,measurement,setting,value
"SAOUHSC 02783 (Staphylococcus aureus), Q5HD69 (protein) MIHSKKLTLGICLVLLIILIVGYVIMTKTNGRNAQIKDTFNQTLKLYPTKNLDDFYDKEGFRDQEFKKGDKGTWIVNSEMVIEPKGKDMETRGMVLYINRNTRTTKGYYFISEMTDDSNGRPKDDEKRYPVKMEHNKIIPTKPLPNDKLKKEIENFKFFVQYGNFKDINDYKDGDISYNPNVPSYSAKYQLNNDDYNVQQLRKRYDIPTKQAPKLLLKGDGDLKGSSVGSRSLEFTFVENKEENIYFTDSVQYTPSEDTRYESN",glycan array binding signal (z-score),GlcNAc(b1-3)Gal(b1-4)Glc,-0.757
same,glycan array binding signal (z-score),[1],-0.202
same,glycan array binding signal (z-score),[2],-0.189
same,glycan array binding signal (z-score),[3],0.582
same,glycan array binding signal (z-score),[4],1.19
same,glycan array binding signal (z-score),[5],-0.079
same,glycan array binding signal (z-score),[6],2.6
same,glycan array binding signal (z-score),[7],-0.227
same,glycan array binding signal (z-score),[8],2.84
same,glycan array binding signal (z-score),[9],0.55
same,glycan array binding signal (z-score),[10],2.46
same,glycan array binding signal (z-score),[11],1.87
same,glycan array binding signal (z-score),[12],-0.629
same,glycan array binding signal (z-score),[13],-1.23
same,glycan array binding signal (z-score),[14],0.253
same,glycan array binding signal (z-score),[15],-0.082
same,glycan array binding signal (z-score),[16],-1.3
same,glycan array binding signal (z-score),[17],-0.404
same,glycan array binding signal (z-score),[18],-1.3
same,glycan array binding signal (z-score),[19],0.027
same,glycan array binding signal (z-score),[20],-1.07
same,glycan array binding signal (z-score),GlcNAc(b1-3)GalNAc,-0.844
same,glycan array binding signal (z-score),GlcNAc(b1-3)Man,0.318
same,glycan array binding signal (z-score),[21],-0.431
same,glycan array binding signal (z-score),[22],0.098
same,glycan array binding signal (z-score),[23],-0.603
same,glycan array binding signal (z-score),[24],0.117
same,glycan array binding signal (z-score),GlcNAc(b1-4)GlcNAc,0.691
same,glycan array binding signal (z-score),[25],-0.387
same,glycan array binding signal (z-score),[26],-0.476
same,glycan array binding signal (z-score),[27],1.17
same,glycan array binding signal (z-score),[28],0.009
same,glycan array binding signal (z-score),[29],0.133
same,glycan array binding signal (z-score),GlcNAc(b1-6)GalNAc,0.195
same,glycan array binding signal (z-score),[30],-0.38
same,glycan array binding signal (z-score),Kdn(a2-3)Gal(b1-3)GalNAc,0.785
same,glycan array binding signal (z-score),Kdn(a2-3)Gal(b1-3)GlcNAc,0.199

# 3 entries drawn at random from the list so far, as already listed:
binder,measurement,setting,value
"SAOUHSC 02783 (Staphylococcus aureus), Q5HD69 (protein) MIHSKKLTLGICLVLLIILIVGYVIMTKTNGRNAQIKDTFNQTLKLYPTKNLDDFYDKEGFRDQEFKKGDKGTWIVNSEMVIEPKGKDMETRGMVLYINRNTRTTKGYYFISEMTDDSNGRPKDDEKRYPVKMEHNKIIPTKPLPNDKLKKEIENFKFFVQYGNFKDINDYKDGDISYNPNVPSYSAKYQLNNDDYNVQQLRKRYDIPTKQAPKLLLKGDGDLKGSSVGSRSLEFTFVENKEENIYFTDSVQYTPSEDTRYESN",glycan array binding signal (z-score),[1],-0.202
same,glycan array binding signal (z-score),[29],0.133
same,glycan array binding signal (z-score),[26],-0.476
